Measurements as given in the supplement of paper PMC5949888.
Most values lie at the floor of the assay. Slopes are relative: functional sequences can read slightly below zero.

These substances were tested on Saccharomyces cerevisiae PS128 hsf1 delta, HSF1(1-493) fusion (assay: growth estimate (transactivation domain function in HSF1 fusion, heat-shock survival) (a.u. (slope of normalised read count over time)); higher = stronger growth at 37°C, i.e. more transactivation activity). Details: library: random library.
Description: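 Random 60-nt DNA library encoding peptides of up to 20 aa, fused to the C-terminus of yeast HSF1 residues 1-493 (C-terminal TAD deleted) and expressed from the native HSF1 promoter on a CEN plasmid in hsf1-deleted S. cerevisiae PS128. Cells were selected at 37°C on -trp 5-FOA plates for 0, 2, 4, 6 and 8 days and amplicons were sequenced. Growth estimate is the slope of a robust linear fit of total-sum-normalised read counts (normalised to the first time point) over time, using at least 2 replicates. Sequences are classed functional (TAD activity) above a threshold of -0.13, set from stop-codon control sequences.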
IDTRRVRGQRKDGSRQTGQT showed a growth estimate of under -0.25. IDTWRERTSSDPSKHTVGGF showed a growth estimate of under -0.25. Substance IDVPISSMESVGLAR has a growth estimate of under -0.25. For IEAFKMGRRGCCAFIPKSFA, the growth estimate was under -0.25. Substance IEFSAG has a growth estimate of under -0.25. Substance IEGY has a growth estimate of under -0.25. In the case of IELAAIATCSRRQSEG, the growth estimate is reported as under -0.25. With IELPRSACMLLWNTLTAWLI the growth estimate was under -0.25. IENVRC was tested, and the growth estimate was under -0.25. Substance IEQIGTDPTLLRGQPI has a growth estimate of under -0.25. Work on IEQLHTRCRGVREPSCVRIS yielded a growth estimate of under -0.25. IERN was tested, and the growth estimate was under -0.25. Substance IESLRDCVFHISTGVTRPSV has a growth estimate of under -0.25. In the case of IESPYGSFLLIGICREGNIA, the growth estimate is reported as under -0.25. IETSVNTIRPD showed a growth estimate of under -0.25. IEVTIHGRQLPTLPLAQHSL showed a growth estimate of under -0.25. For IFACGTAGPGRARAHSGCVR, the growth estimate was under -0.25. IFCTPDQTPAVPEQPSADRN was tested, and the growth estimate was under -0.25. Work on IFDRDPEAKSDAQLDHSGIK yielded a growth estimate of under -0.25. With IFFSTRSHTR the growth estimate was under -0.25. IFGYEWQSGQVVPLLVVPRP gave a growth estimate of under -0.25. In the case of IFIRGTIGTGAPQTLDMSLG, the growth estimate is reported as under -0.25. IFQARIAGHVTGKAL gave a growth estimate of under -0.25. For IFSWRKGPLVLYWQ, the growth estimate was under -0.25. With IFTAVGVSI the growth estimate was under -0.25. Work on IFTGMRRTS yielded a growth estimate of under -0.25. With IFTPRILRAAPSNSLVTYDR the growth estimate was under -0.25. IFVG gave a growth estimate of under -0.25. IFVSRE was tested, and the growth estimate was under -0.25. For IFVTVATAGSTGVRCQDGGR, the growth estimate was under -0.25. In the case of IFVWAAWRSKYRTGTFSPPG, the growth estimate is reported as under -0.25. Work on IGAERILDSTLRVNGLQSGS yielded a growth estimate of under -0.25. IGAYKHG showed a growth estimate of -0.246. Work on IGCGYVA yielded a growth estimate of under -0.25. With IGCLLSAKFWAASELLQSKS the growth estimate was under -0.25. Work on IGDCCILGSSGGEKGLFGLF yielded a growth estimate of 3.64. IGDGKRFCIQDT gave a growth estimate of under -0.25. With IGDVSRPWPYSRVRACKRRC the growth estimate was under -0.25. IGFLGENIPSVDPIGEENRD was tested, and the growth estimate was under -0.25. Work on IGFVEGCQELHNLNALVLTW yielded a growth estimate of under -0.25. Substance IGGACWGY has a growth estimate of under -0.25. Work on IGGGCSRSSCRWRSFGGYRP yielded a growth estimate of under -0.25. IGGGRASRHNALACGVNDLG showed a growth estimate of under -0.25. IGGIYPERLDDAIWQAQIAP was tested, and the growth estimate was under -0.25. IGIEP showed a growth estimate of under -0.253. IGIFTHLKLCVWFIDGIVGE showed a growth estimate of under -0.25. IGITKLNGRFGTSSTSDLRH gave a growth estimate of under -0.25. IGKG was tested, and the growth estimate was under -0.25. With IGLFQASHSSPSGSRSLYGP the growth estimate was under -0.25. Substance IGLGPNSRFRCSAAEAALTC has a growth estimate of under -0.25. For IGLLLRKH, the growth estimate was under -0.25. IGLRRCTTGVVPPGY showed a growth estimate of under -0.25. In the case of IGMRPV, the growth estimate is reported as under -0.25. IGNV showed a growth estimate of under -0.25. IGPENERLSQTGPLFLPTSH was tested, and the growth estimate was under -0.25. IGPGLDRPNAPGI was tested, and the growth estimate was under -0.25. IGQWSNAERLTPYHTQASDS gave a growth estimate of under -0.25. IGRQGGIPGRFNRVLLWTGK was tested, and the growth estimate was under -0.25. IGRSDEMPVENLTSCHVWKP was tested, and the growth estimate was under -0.25. Work on IGRWG yielded a growth estimate of under -0.25. In the case of IGSCVAITHLGASGGLALHT, the growth estimate is reported as under -0.25. IGSESWDACRCASL gave a growth estimate of under -0.25. For IGSFCAAHLRY, the growth estimate was under -0.25. For IGSLPSLRPFLKNEATQRQA, the growth estimate was under -0.25. In the case of IGSNFADHIASPLQRDHTVT, the growth estimate is reported as under -0.25. With IGSRKDLYRKPIR the growth estimate was under -0.25. In the case of IGSSIQLRVVAFLC, the growth estimate is reported as under -0.25. IGSTTSCMLLRTMHAP showed a growth estimate of -0.0747. For IGTLVCLNQLSIGLKRVSS, the growth estimate was under -0.25. IGTNARRLSKRSTRLTDRML showed a growth estimate of under -0.25. In the case of IGTV, the growth estimate is reported as under -0.25. For IGVPL, the growth estimate was under -0.25. Work on IGVTSA yielded a growth estimate of under -0.25. IGVVISLIHKHAYGGSQPDV showed a growth estimate of under -0.25. IHCAYL showed a growth estimate of under -0.25. IHCRRVRWFRSIGSSV gave a growth estimate of under -0.25. Substance IHDRFVVSRLPTGRSV has a growth estimate of under -0.25. IHDRTECTSRKGGR was tested, and the growth estimate was under -0.25. In the case of IHDRWLLSGLGIDKTAKWLK, the growth estimate is reported as under -0.25. In the case of IHDTDFRRGRATRSGKNSAS, the growth estimate is reported as under -0.25. IHFLIRCGGPLFS gave a growth estimate of under -0.25. With IHFMLDRESHGTRF the growth estimate was under -0.25. IHGW gave a growth estimate of under -0.25. For IHHEMVLGLVGRNRIACQRR, the growth estimate was under -0.25. Work on IHKVCRTSRVEDLKPVKDGT yielded a growth estimate of under -0.25. With IHLAVRQVCMGPRN the growth estimate was under -0.25. IHQHIYLLGLATSSPAVPAL gave a growth estimate of under -0.25. For IHRENTPSAIVIGGSGPETA, the growth estimate was under -0.25. Work on IHRGLL yielded a growth estimate of under -0.25. With IHRLCCFYETWVSLCPRSPG the growth estimate was under -0.25. IHRMVVTLSRIYSRPSVEPA showed a growth estimate of under -0.25. With IHRVDRMSKNNPLGATV the growth estimate was under -0.25. IHRVRRQMRSPDIIG was tested, and the growth estimate was under -0.25. IHSPL showed a growth estimate of under -0.25. IIGIAFDCR showed a growth estimate of -0.25.
